Measurements from the supplement of paper PMC8728848.
Some of the results follow.

Tests used:
Assay in all cases: glycan array binding signal (z-score within array); higher = stronger binding
Conditions in all cases: glycan notation: IUPAC condensed, linker removed
[1] = molecular target: Gal(b1-3)GalNAc(b1-3)Gal
Procedure, shortened: (§1)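 The binding signal is a Z-score computed within each array and averaged over linkers. Arrays of the same protein sequence at different concentrations or buffers were also averaged together. Data originate from 3228 arrays in the Consortium for Functional Glycomics database, kept only where the protein sequence was available.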

[2] = molecular target: Gal(b1-3)GalNAc(b1-3)Gal(a1-4)Gal(b1-4)Glc
Procedure, shortened: as §1

[3] = molecular target: Gal(b1-3)GalNAc(b1-4)Gal(b1-4)Glc
Procedure, shortened: as §1

[4] = molecular target: Gal(b1-3)GalNAc(b1-4)[Neu5Ac(a2-3)]Gal(b1-4)Glc
Procedure, shortened: as §1

[5] = molecular target: Gal(b1-3)GlcNAc
Procedure, shortened: as §1

[6] = molecular target: Gal(b1-3)GlcNAc(a1-3)Gal(b1-4)GlcNAc
Procedure, shortened: as §1

[7] = molecular target: Gal(b1-3)GlcNAc(a1-6)Gal(b1-4)GlcNAc
Procedure, shortened: as §1

[8] = molecular target: Gal(b1-3)GlcNAc(b1-2)Man
Procedure, shortened: as §1

[9] = molecular target: Gal(b1-3)GlcNAc(b1-2)Man(a1-3)[Gal(b1-3)GlcNAc(b1-2)Man(a1-6)]Man(b1-4)GlcNAc(b1-4)GlcNAc
Procedure, shortened: as §1

[10] = molecular target: Gal(b1-3)GlcNAc(b1-2)Man(a1-3)[Gal(b1-3)GlcNAc(b1-2)Man(a1-6)]Man(b1-4)GlcNAc(b1-4)[Fuc(a1-6)]GlcNAc
Procedure, shortened: as §1

[11] = molecular target: Gal(b1-3)GlcNAc(b1-2)Man(a1-3)[GlcNAc(b1-4)][Gal(b1-3)GlcNAc(b1-2)Man(a1-6)]Man(b1-4)GlcNAc(b1-4)GlcNAc
Procedure, shortened: as §1

[12] = molecular target: Gal(b1-3)GlcNAc(b1-2)[Gal(b1-3)GlcNAc(b1-6)]Man(a1-6)[Gal(b1-3)GlcNAc(b1-2)Man(a1-3)]Man(b1-4)GlcNAc(b1-4)GlcNAc
Procedure, shortened: as §1

[13] = molecular target: Gal(b1-3)GlcNAc(b1-3)Gal(b1-3)GlcNAc
Procedure, shortened: as §1

[14] = molecular target: Gal(b1-3)GlcNAc(b1-3)Gal(b1-4)Glc
Procedure, shortened: as §1

[15] = molecular target: Gal(b1-3)GlcNAc(b1-3)Gal(b1-4)GlcNAc
Procedure, shortened: as §1

[16] = molecular target: Gal(b1-3)GlcNAc(b1-3)Gal(b1-4)GlcNAc(b1-2)Man(a1-3)[Gal(b1-3)GlcNAc(b1-3)Gal(b1-4)GlcNAc(b1-2)Man(a1-6)]Man(b1-4)GlcNAc(b1-4)GlcNAc
Procedure, shortened: as §1

[17] = molecular target: Gal(b1-3)GlcNAc(b1-3)Gal(b1-4)GlcNAc(b1-2)[Gal(b1-3)GlcNAc(b1-3)Gal(b1-4)GlcNAc(b1-6)]Man(a1-6)[Gal(b1-3)GlcNAc(b1-3)Gal(b1-4)GlcNAc(b1-2)Man(a1-3)]Man(b1-4)GlcNAc(b1-4)[Fuc(a1-6)]GlcNAc
Procedure, shortened: as §1

[18] = molecular target: Gal(b1-3)GlcNAc(b1-3)Gal(b1-4)GlcNAc(b1-3)Gal(b1-4)GlcNAc(b1-2)[Gal(b1-3)GlcNAc(b1-3)Gal(b1-4)GlcNAc(b1-3)Gal(b1-4)GlcNAc(b1-6)]Man(a1-6)[Gal(b1-3)GlcNAc(b1-3)Gal(b1-4)GlcNAc(b1-3)Gal(b1-4)GlcNAc(b1-2)Man(a1-3)]Man(b1-4)GlcNAc(b1-4)[Fuc(a1-6)]GlcNAc
Procedure, shortened: as §1

[19] = molecular target: Gal(b1-3)GlcNAc(b1-3)Gal(b1-4)GlcNAc(b1-6)[Gal(b1-3)GlcNAc(b1-3)]Gal(b1-4)Glc
Procedure, shortened: as §1

[20] = molecular target: Gal(b1-3)GlcNAc(b1-3)Gal(b1-4)[Fuc(a1-3)]GlcNAc
Procedure, shortened: as §1

[21] = molecular target: Gal(b1-3)GlcNAc(b1-3)Gal(b1-4)[Fuc(a1-3)]GlcNAc(b1-6)[Gal(b1-3)GlcNAc(b1-3)]Gal(b1-4)Glc
Procedure, shortened: as §1

[22] = molecular target: Gal(b1-3)GlcNAc(b1-3)GalNAc
Procedure, shortened: as §1

[23] = molecular target: Gal(b1-3)GlcNAc(b1-6)Gal(b1-4)GlcNAc
Procedure, shortened: as §1

[24] = molecular target: Gal(b1-3)GlcNAc(b1-6)GalNAc
Procedure, shortened: as §1

[25] = molecular target: Gal(b1-3)GlcNAc(b1-6)[Gal(b1-3)]GalNAc
Procedure, shortened: as §1

[26] = molecular target: Gal(b1-3)GlcNAc6S
Procedure, shortened: as §1

[27] = molecular target: Gal(b1-3)[Fuc(a1-4)]GlcNAc
Procedure, shortened: as §1

[28] = molecular target: Gal(b1-3)[Fuc(a1-4)]GlcNAc(b1-2)Man
Procedure, shortened: as §1

[29] = molecular target: Gal(b1-3)[Fuc(a1-4)]GlcNAc(b1-2)Man(a1-3)[Gal(b1-3)[Fuc(a1-4)]GlcNAc(b1-2)Man(a1-6)]Man(b1-4)GlcNAc(b1-4)[Fuc(a1-6)]GlcNAc
Procedure, shortened: as §1

[30] = molecular target: Gal(b1-3)[Fuc(a1-4)]GlcNAc(b1-3)Gal(b1-3)[Fuc(a1-4)]GlcNAc
Procedure, shortened: as §1

[31] = molecular target: Gal(b1-3)[Fuc(a1-4)]GlcNAc(b1-3)Gal(b1-4)[Fuc(a1-3)]GlcNAc
Procedure, shortened: as §1

[32] = molecular target: Gal(b1-3)[Fuc(a1-4)]GlcNAc(b1-6)GalNAc
Procedure, shortened: as §1

[33] = molecular target: Gal(b1-3)[GlcNAc(b1-6)]GalNAc
Procedure, shortened: as §1

[34] = molecular target: Gal(b1-3)[Neu5Ac(a2-6)]GalNAc
Procedure, shortened: as §1

[35] = molecular target: Gal(b1-3)[Neu5Ac(a2-6)]GlcNAc(b1-4)Gal(b1-4)Glc
Procedure, shortened: as §1

[36] = molecular target: Gal(b1-3)[Neu5Ac(b2-6)]GalNAc
Procedure, shortened: as §1

[37] = molecular target: Gal(b1-4)Gal
Procedure, shortened: as §1

[38] = molecular target: Gal(b1-4)GalNAc(a1-3)[Fuc(a1-2)]Gal(b1-4)GlcNAc
Procedure, shortened: as §1

B1: AT5G24760(45) (Arabidopsis thaliana), Q8LEB2 (protein)
chain: MSASSSSFEQPQVITCNAAVAWRAGEPLVMEEVEVSPPQPLEIRIKVVCTSLCRSDLSAWESQSLLPRIFGHEAAGIVESIGEGVTEFEKGDHVLAVFTGECGSCRHCISGKSNMCQVLGMERKGLMHSDQKTRFSIKGKPVYHYCAVSSFSEYTVVHSGCAVKVDPLAPLHKICLLSCGVAAGLGAAWNVADVQKGSSVVIFGLGTVGLSVAQGAKLRGAAQILGVDINPAKAEQAKTFGVTDFINSNDLSEPIPQVIKRMTGGGADFSFECVGDTGIATTALQSCSDGWGMTVTLGVPKAKPEVSAHYGLFLSGKSLKGTLFGGWKPKSDLPSLIDKYMNKEIMIDEFITHNLSFDEINKAFVLMREGKCLRCVLHMPK
glycan array binding signal (z-score) [1]: -0.299
glycan array binding signal (z-score) [2]: 0.397
glycan array binding signal (z-score) [3]: 1.59
glycan array binding signal (z-score) [4]: -0.742
glycan array binding signal (z-score) [5]: 0.243
glycan array binding signal (z-score) [6]: 0.352
glycan array binding signal (z-score) [7]: 0.794
glycan array binding signal (z-score) [8]: 0.518
glycan array binding signal (z-score) [9]: -0.275
glycan array binding signal (z-score) [10]: 0.374
glycan array binding signal (z-score) [11]: 1.06
glycan array binding signal (z-score) [12]: -0.113
glycan array binding signal (z-score) [13]: 0.451
glycan array binding signal (z-score) [14]: -0.198
glycan array binding signal (z-score) [15]: -0.138
glycan array binding signal (z-score) [16]: -0.597
glycan array binding signal (z-score) [17]: -0.534
glycan array binding signal (z-score) [18]: 0.084
glycan array binding signal (z-score) [19]: -0.344
glycan array binding signal (z-score) [20]: -0.066
glycan array binding signal (z-score) [21]: -0.862
glycan array binding signal (z-score) [22]: 0.093
glycan array binding signal (z-score) [23]: 0.232
glycan array binding signal (z-score) [24]: -0.54
glycan array binding signal (z-score) [25]: -0.307
glycan array binding signal (z-score) [26]: -0.515
glycan array binding signal (z-score) [27]: 1.6
glycan array binding signal (z-score) [28]: -1.06
glycan array binding signal (z-score) [29]: -0.439
glycan array binding signal (z-score) [30]: -0.507
glycan array binding signal (z-score) [31]: 0.052
glycan array binding signal (z-score) [32]: -0.242
glycan array binding signal (z-score) [33]: 0.39
glycan array binding signal (z-score) [34]: -0.212
glycan array binding signal (z-score) [35]: -0.277
glycan array binding signal (z-score) [36]: 0.708
glycan array binding signal (z-score) [37]: -0.537
glycan array binding signal (z-score) [38]: -1.13
